The exact form of at least one protein or probe is not confirmed.
Tests used:
[1] = target: HER2 extracellular domain (UniProt P04626); test: binding assay; settings: 5'-H2N-(CH2)6; CITED; method not stated; single-stranded DNA
thrombin = test: binding assay; settings: 5'-H2N-(CH2)6; CITED reported in the art; purified native protein; single-stranded DNA

Sequence	Kd [1] [nM]	Kd (thrombin) [nM]
AACCGCCCAAATCCCTAAGAGTCTGCACTTGTCATTTTGTATATGTATTTGGTTTTTGGCTCTCACAGACACACTACACACGCACA [anti-HER2 aptamer]	315	
AGTCCGTGGTAGGGCAGGTTGGGGTGACT [thrombin 29-mer aptamer]		3.5

From patent US20170028070
